Data from patent US20040052828A1, “Consumable product including consumable component and alpha-keto enamine derivatives” (priority 2000, published 2004).

Key:
Format in all cases: in vivo, human
[1] = tested on: trained panelists; test: Cooling threshold in water, triangle test by trained panelists; conditions: ratio of cooling threshold to odor threshold
Experimental: (§1) Prior to sensory analysis, the purity of the synthetic taste compounds was checked by GC/MS. Determination of the cooling, as well as the aroma threshold, of the compounds was performed by trained panelists. Nasal odor thresholds (Guth, H.; Grosch, W. J. Am. Oil Chem. Soc. 1993, 70, 513-518), as well as cooling thresholds, were determined by triangle tests using tap water as the solvent. The samples were presented in order of increasing concentrations and the threshold values evaluated in three separate sessions were averaged. The values between individuals and separate sessions differed by not more than one dilution step.

[2] = tested on: trained panelists; test: Nasal odor threshold and odor quality in water, triangle test by trained panelists; conditions: for Odor quality: in water; for Odor threshold: nasal odor threshold determined in water, triangle test
Experimental: as §1

[3] = Tasting of cooling compounds in Vittel mineral water
Experimental: Solutions of 10%-menthol, 10% 5-MPC and 10% MPF, respectively, in ethanol were diluted with Vittel™ mineral water. The solutions were tasted and compared with pure Vittel™ water.

[4] = tested on: mouth cavity; test: Evaluation of cooling substances in orange juice
Experimental: Several cooling substances were evaluated in orange juice.

[5] = tested on: mouth; test: Taste testing of sugar confectionery (candies)
Experimental: Sugar (100 g) was heated together with water (15 g) in a beaker on a hot plate. After the mixture became a clear solution, the sugar syrup was heated further until it became viscous due to the evaporation of water. Then 5-MPC (20 mg) and MPF (100 mg), respectively, were added. The viscous liquid was then poured into molds (3 g each) and cooled down to room temperature. The candies, which had been formed in the molds, were demolded and used for taste testing.

Structure (SMILES)	Ratio (Cool/Odor) [1]	Odor quality [2]	Odor threshold [2] [mg/kg]	other results
CC1=C(N2CCCC2)C(=O)OC1 [2(5H)-MPF, 4-Methyl-3-(1-pyrrolidinyl)-2(5H)-furanone]	<<0.01	odorless	–	–
CC1=C(N2CCCC2C(=O)O)C(=O)CC1 (stereo not shown) [3-MProC, 3-Methyl-2-(2-carboxy-1-pyrrolidinyl)-2-cyclopentene-1-one]	<<0.01	odorless	–	–
CC1=C(N2CCCC2)C(=O)C(C)C1 (stereo not shown) [3,5-DMPC, 3,5-Dimethyl-2-(1-pyrrolidinyl)-2-cyclopenten-1-one]	2.0	rubber-like	16 to 27	–
CC1=C(N2CCCC2)C(=O)CC1C (stereo not shown) [3,4-DMPC, 3,4-Dimethyl-2-(1-pyrrolidinyl)-2-cyclopenten-1-one]	2.0	rubber-like	26 to 43	–
CC1CCC=C(N2CCCC2)C1=O (stereo not shown) [6-MPCH, 6-Methyl-2-(1-pyrrolidinyl)-2-cyclohexen-1-one]	8.0	rubber-like	3.4 to 5.6	–
CCC1CC=C(N2CCCC2)C1=O (stereo not shown) [5-EPC, 5-Ethyl-2-(1-pyrrolidinyl)-2-cyclopenten-1-one]	2.0	faintly mint-	13 to 22	–
CC1CC=C(N2CCCC2)C1=O (stereo not shown) [5-MPC, 5-Methyl-2-(1-pyrrolidinyl)-2-cyclopenten-1-one]	1.7	faintly mint-	2.6 to 5.2	Flavor: odor/aroma ([3]; 100 mg/L in Vittel mineral water): slight mint-like odor; aroma ([4]; 200 mg/L in orange juice): weak mint-like herbal aroma note; additional flavour quality ([5]; 20 mg added to syrup of 100 g sugar): slightly oily and mint-like
CC1C=C(N2CCCC2)C(=O)C1C (stereo not shown) [4,5-DMPC, 4,5-Dimethyl-2-(1-pyrrolidinyl)-2-cyclopenten-1-one]	0.5	faintly mint-	136 to 226	–
CC1=C(N2CCCC2)C(=O)CO1 [MPF, 5-Methyl-4-(1-pyrrolidinyl)-3(2H)-furanone]	<<0.01	odorless	–	Flavor: odor/aroma ([3]; 400 mg/L in Vittel mineral water): neutral; aroma ([4]; 1000 mg/L in orange juice): without any additional aroma sensation; additional flavour quality ([5]; 100 mg added to syrup of 100 g sugar): no additional flavour quality
CC1=C(N2CCCC2)C(=O)CCC1 [3-MPCH, 3-Methyl-2-(1-pyrrolidinyl)-2-cyclohexen-1-one]	2.0	faintly mint-	45 to 75	–
CC1=C(N2CCCCC2)C(=O)CC1 [3-MPipC, 3-Methyl-2-(1-piperidinyl)-2-cyclopenten-1-one]	0.8	faintly	80 to 120	–
CC1=C(N2CCCC2)C(=O)CC1 [3-MPC, 3-Methyl-2-(1-pyrrolidinyl)-2-cyclopenten-1-one]	0.8	faintly	44 to 73	–
CC1CC=C(N2CCCCC2)C1=O (stereo not shown) [5-MpipC, 5-Methyl-2-(1-piperidinyl)-2-cyclopenten-1-one]	2.7	faintly mint-	12 to 20	–
CCN(CC)C1=CCC(C)C1=O (stereo not shown) [5-MdeaC, 5-Methyl-2-diethylamino-2-cyclopenten-1-one]	2.1	curcuma-like	6.0 to 9.0	–
CC1=C(N2CCCC2)C(=O)C(C)O1 (stereo not shown) [DMPF, 2,5-Dimethyl-4-(1-pyrrolidinyl)-3(2H)-furanone]	2.7	nutty, roasty	30 to 60	–
CC1CCC(C(C)C)C(O)C1 (single isomer, unassigned; (-)) [(−)-Menthol, reference compound]	9.5	mint-like	0.1 to 0.2	Flavor: odor/aroma ([3]; 10 mg/L in Vittel mineral water): mint-like odor; aroma ([4]; 20 mg/L in orange juice): strong mint-like aroma
CC1=C(N2CCCC2)C(=O)OC1C (stereo not shown) [2(5H)-DMPF, 4,5-Dimethyl-3-(1-pyrrolidinyl)-2(5H)-furanone]	0.06	faintly mint-	32 to 64	–
COC(=O)C1CCCN1C1=CCC(C)C1=O (stereo not shown) [5-MMeproC, 5-Methyl-2-(2-methoxycarbonyl-1-pyrrolidinyl)-2-cyclopentene-1-one]	<<0.01	odorless	–	–
